No constants are given. Whether binding was seen depends on the method and setting. In cells and extracts the contact can be indirect. Some entries that bind do so weakly or less than the wild type. Where a sequence is shown, tags or fusion partners need not be part of it. Each block holds one binder with its values, some of them ahead of it.
How the values were obtained:
[1] = target: T1, full-length GASZ (GFP-GASZ and FLAG-GASZ) (mouse) (UniProt Q8VD46); test: co-IP; GFP- and FLAG-tagged full-length GASZ co-expressed in 293T cells without or with FLAG-P345/401; lysate precipitated with a GFP antibody, Western blot with FLAG and GFP antibodies
T1 sequence: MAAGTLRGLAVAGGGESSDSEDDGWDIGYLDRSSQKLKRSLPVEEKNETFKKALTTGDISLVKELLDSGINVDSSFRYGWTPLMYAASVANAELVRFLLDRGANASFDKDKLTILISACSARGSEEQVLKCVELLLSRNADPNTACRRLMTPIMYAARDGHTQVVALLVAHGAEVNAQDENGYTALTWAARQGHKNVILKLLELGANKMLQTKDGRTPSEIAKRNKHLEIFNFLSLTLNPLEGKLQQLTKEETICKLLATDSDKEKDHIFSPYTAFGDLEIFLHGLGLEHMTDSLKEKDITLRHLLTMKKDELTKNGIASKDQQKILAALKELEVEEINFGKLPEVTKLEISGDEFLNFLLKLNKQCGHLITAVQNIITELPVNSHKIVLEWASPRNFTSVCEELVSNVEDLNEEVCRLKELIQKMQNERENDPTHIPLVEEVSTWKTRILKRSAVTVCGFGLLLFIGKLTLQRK

[2] = target: T2, FLAG-GASZ-Δ345/401 (mouse) (UniProt Q8VD46); test: co-IP; GFP-GASZ co-expressed with FLAG-tagged GASZ or mutants in 293T cells; lysate (50 mM Tris pH 7.6, 300 mM NaCl, 1% Triton X-100) precipitated with FLAG affinity beads, Western blot
T2 sequence: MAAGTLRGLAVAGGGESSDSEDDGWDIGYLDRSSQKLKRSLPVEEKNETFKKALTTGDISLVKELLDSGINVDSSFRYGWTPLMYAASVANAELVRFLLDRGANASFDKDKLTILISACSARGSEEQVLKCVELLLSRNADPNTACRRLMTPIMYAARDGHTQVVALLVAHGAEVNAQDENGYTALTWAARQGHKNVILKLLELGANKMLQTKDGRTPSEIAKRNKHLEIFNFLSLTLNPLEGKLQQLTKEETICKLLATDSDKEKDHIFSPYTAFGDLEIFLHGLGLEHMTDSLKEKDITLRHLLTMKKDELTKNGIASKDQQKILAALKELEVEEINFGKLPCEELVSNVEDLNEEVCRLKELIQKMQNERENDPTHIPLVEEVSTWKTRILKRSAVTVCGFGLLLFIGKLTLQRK

binding [1]: binds
B1: FLAG-P345/401 (peptide, UniProt Q8VD46 345-401)
chain: EVTKLEISGDEFLNFLLKLNKQCGHLITAVQNIITELPVNSHKIVLEWASPRNFTSV

binding [2]: no binding | binding [1]: binds
B2: full-length GASZ (GFP-GASZ and FLAG-GASZ) (protein, UniProt Q8VD46 1-475)
chain: T1 sequence

Reference: paper PMC10781510
